The values that follow come from paper PMC10279885.

These are yes or no findings as the source states them, for the method shown. Binding seen in cells or lysates may run through a third protein. Some binding calls cover weakened binding; strength is not graded here. For some assays here: Sequences can lack the tags named with a protein.

Assay [1] concerns the target NAI2 (wild type), expressed as NAI2:HA and as NAI2:GFP (Arabidopsis thaliana) (UniProt Q9LSB4). As to the kind of experiment: co-IP; N. benthamiana leaf extracts 5 d after agro-infiltration; IP buffer 50 mM Tris-HCl pH 7.5, 150 mM NaCl, 0.1% Triton X-100; anti-GFP antibody overnight at 4 °C, protein-A beads; western blot with anti-HA and anti-GFP. For orientation: Immunoblotting shows a protein as a band on a membrane.

For assay [2], the target named is NAI2 (full length), expressed as NAI2:NV and as NAI2:CV for BiFC (Arabidopsis thaliana) (UniProt Q9LSB4). As to the kind of experiment: split reporter; BiFC with NV and CV fragments of Venus in N. benthamiana leaves, confocal microscopy 5 d after agro-infiltration.

B1: NAI2 (wild type), expressed as NAI2:HA and as NAI2:GFP (protein, UniProt Q9LSB4 25-772)
chain: QDEGTGSLSTLDLIEHEYQTSVNSLQGNEAVDQTETSGQKNSTVSDNNTISLSLSEEPALETLKESVDTSAELGAVTDEVDKPSSMLDHIELEFEAHINELKEAGSDGINKVEESKDDEEAARRHKMLEAIEREFEAAHAGFEQLKTDDSAQGLDDEQSAKRQSMLDEIERDFEAATKGLEQLKADDLTGINDEEHAAKRQKMLEEIEREFEEATKGLEELRHSTSSTDDEAQSAKRQNMLDEIEREFEAATSGLKELKINAHTVKDDVDDKEQDAKRQSMLDAIEREFEAVTESFKQLEDIADNKAEGDDESAKRQSMLDEIEREFEAATNSLKQLNLDDFSEGDDSAESARRNSMLEAIEREFEAATKGLEELKANDSTGDKDDDEHVARRKIMLEAIEREFEAATKGLEELKNESEQAENKRNSMLEAFEREFEAATNAKANGENSAKNPSTISTTVQKSSGGYNAGLEGLLKPADGVCGCFNKDKDGLQADTDSSINIAEILAEESKLQGSGTSRLTTSLNNLVDTHRKETSSKVGSVLGSSSSVTSTTSESAATSESIESLKQTLRKLRGLSARDLVNHPNFDAIIAAGTRYEVLSSASIGYISLLAKYKTVIKEGLEASQRVQIAQTRAKLLKETAMEKQRTVDSVFAAAKTTAQRGDALHIRIVAIKKLLAKLEAEKVDVDSKFTSLTTSLSELLKEASQAYEEYHEAVHKAKDEQAAEEFAVETTKRAEHIWVEFLSSLN
Turning to B1, the binding entry in assay [1] is “binds”.

B2: NAI2 (full length), expressed as NAI2:NV and as NAI2:CV for BiFC (protein, UniProt Q9LSB4 25-772)
chain: B1 chain
On to B2, for which the binding entry in assay [2] is reported as “binds”.
